Assay: Feed consumption (feed intake) of ovariectomized rats
Assay type: in vivo, Sprague Dawley rats
Details: 10 mg/kg intramuscular once every 4 weeks

CCCCCCCCCCC(=O)O[C@H]1CC[C@H]2[C@@H]3CCC4=CC(=O)CC[C@]4(C)[C@H]3CC[C@]12C [Testosterone undecanoate]
Feed Intake (Basal): 15.4 ± 0.4 g/animal/day
Feed Intake (Week 01): 18.8 ± 0.0 g/animal/day
Feed Intake (Week 02): 19.3 ± 0.1 g/animal/day
Feed Intake (Week 03): 19.4 ± 0.1 g/animal/day
Feed Intake (Week 04): 19.9 ± 0.1 g/animal/day
Feed Intake (Week 05): 20.1 ± 0.0 g/animal/day
Feed Intake (Week 06): 20.1 ± 0.0 g/animal/day
Feed Intake (Week 07): 20.2 ± 0.0 g/animal/day
Feed Intake (Week 08): 15.4 ± 0.4 g/animal/day
